The values below come from patent US20210402016A1 (Provincial Health Services Authority, priority 2018, published 2021).

The nature of the series: general procedure: Fmoc solid-phase peptide synthesis; Rink amide-MBHA resin; HATU/HOAt/DIEA. To be noted: whole synthesis.

For “DOTA-Pip-D-Phe-Gln-Trp-Ala-Val-Gly-His-Leu-ψ(CH2N)-Pro-NH2”, under “scale 0.1 mmol”, the isolated yield came to 2.4%.
The substance “DOTA-pABzA-DIG-D-Phe-Gln-Trp-Ala-Val-Gly-His-Leu-ψ(CH2N)-Pro-NH2” showed an isolated yield (scale 0.3 mmol) of 1.1%.
